Test results as given in patent US20100272706A1, “ANTIVIRALS” (priority 2007, published 2010).

Tested on: vaccinia virus mature virions (EGFP-MV)
Type: cell-based

Structure (SMILES): CN[C@@H]1C[C@H]2O[C@@](C)([C@@H]1OC)n1c3ccccc3c3c4c(c5c6ccccc6n2c5c31)C(=O)NC4 [Staurosporin]
- inhibition of viral infection: up to 65%
